Assay results reported in publication PMC9103898.
No constants are given. Whether binding was seen depends on the method and setting. Binding seen in cells or lysates may run through a third protein. These calls come from enrichment with a bait or labelling near it, and not all partners need be listed.

Target: T1, Nod26-like major intrinsic protein (NIP) encoded by the low silicon gene 1 (Lsi1), in Lsi1-overexpressing Dular rice leaves (rice (Oryza sativa)) (UniProt Q6Z2T3)
T1 sequence: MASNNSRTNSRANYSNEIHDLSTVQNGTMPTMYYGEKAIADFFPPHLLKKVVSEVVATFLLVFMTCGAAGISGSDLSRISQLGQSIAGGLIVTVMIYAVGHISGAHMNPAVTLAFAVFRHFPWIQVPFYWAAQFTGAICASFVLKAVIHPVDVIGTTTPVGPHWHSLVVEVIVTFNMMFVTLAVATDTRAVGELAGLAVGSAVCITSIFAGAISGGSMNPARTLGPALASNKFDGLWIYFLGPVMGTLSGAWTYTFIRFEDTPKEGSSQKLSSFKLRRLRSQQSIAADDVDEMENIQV
Test: affinity purification with mass spectrometry; crude non-denatured leaf extract of rice treated at low temperature for 48 h, antibodies (200:1) overnight at 4 °C, protein A/G agarose, SDS-PAGE and LC-MS/MS

B1: 14-3-3f protein, in rice leaf extract (protein, UniProt Q06967 1-260)
chain: MSPAEASREENVYMAKLAEQAERYEEMVEFMEKVAKTTDVGELTVEERNLLSVAYKNVIGARRASWRIISSIEQKEESRGNEAYVASIKEYRSRIETELSKICDGILKLLDSHLVPSATAAESKVFYLKMKGDYHRYLAEFKSGAERKEAAENTLVAYKSAQDIALADLPTTHPIRLGLALNFSVFYYEILNSPDRACNLAKQAFDDAIAELDTLGEESYKDSTLIMQLLRDNLTLWTSDNAEDGGDEIKEAAKPEGEGH
Q: For B1, which binding is on record?
A: binds
